Structures can show the parent of a compound that is named as a salt. This is one part of the list. Hit calls seldom repeat between salt and free forms of one compound.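 In K562 cells expressing nanoluciferase-fused kinases, luminescence was recorded at 4 h intervals between 2 and 18 h, normalized as percent of control with DMSO at 100% and a positive control at 0%. A significant (2 sigma) signal drop marks a time point as decreased. The authors' rule for a hit is not shown and takes in more than the number of time points.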

Amino acid sequences for entries named in this document (tags omitted). A change or cut given only in a name is not applied to a line headed by its entry.
UniProt P51451: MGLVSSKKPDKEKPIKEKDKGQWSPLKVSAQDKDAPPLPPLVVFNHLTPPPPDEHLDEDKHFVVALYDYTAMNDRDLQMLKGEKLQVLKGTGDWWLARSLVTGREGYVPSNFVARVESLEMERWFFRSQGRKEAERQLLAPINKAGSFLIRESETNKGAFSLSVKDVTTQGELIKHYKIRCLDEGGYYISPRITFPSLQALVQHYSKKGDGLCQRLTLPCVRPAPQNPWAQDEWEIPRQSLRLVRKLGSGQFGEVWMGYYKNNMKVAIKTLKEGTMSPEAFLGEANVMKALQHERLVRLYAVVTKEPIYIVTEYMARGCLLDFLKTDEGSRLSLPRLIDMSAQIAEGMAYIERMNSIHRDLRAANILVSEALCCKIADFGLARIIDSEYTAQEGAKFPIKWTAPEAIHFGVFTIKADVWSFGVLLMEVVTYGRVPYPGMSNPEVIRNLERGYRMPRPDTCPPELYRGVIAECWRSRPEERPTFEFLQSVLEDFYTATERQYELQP

The test addresses BLK (UniProt P51451). Kind of test: number of time points (of 5) at which kinase-Nluc abundance scored as decreased, DMSO-normalised (count); higher = more persistent destabilization. As to conditions: K562; 2-18 h.
On to `CN1CC[C@@H](c2c(O)cc(O)c3c(=O)cc(-c4ccc(C(F)(F)F)cc4Cl)oc23)[C@@H]1CO` [Voruciclib (hydrochloride)] (10 µM), for which the “number of time points” value came to 0.
As to `O=c1cc(-c2cccc3c2Sc2ccccc2S3)oc(N2CCOCC2)c1` (10 µM), the “number of time points” value came to 0.
On to `O=[N+]([O-])c1ccc(Nc2nc(N3CCOCC3)nc(N3CCOCC3)n2)cc1` (10 µM), for which the “number of time points” value came to 0.
In the case of `c1ccc(-c2nc(=NCCN3CCOCC3)sn2-c2ccccc2)cc1` [VP3.15 (dihydrobromide)] (10 µM), the “number of time points” value was 0.
In the case of `Nc1nc(N)c2nc(-c3cccc(O)c3)cnc2n1` (10 µM), the “number of time points” value came out at 0.
Regarding `Nc1ncnc2c1c(-c1ccc(Oc3ccccc3)cc1)nn2C1CCN(CCOCCOCCOc2ccc3c(c2)CN(C2CCC(=O)NC2=O)C3=O)CC1` (configuration not stated) (2.5 µM), the “number of time points” value came to 0.
The same measure for `C=CC(=O)N1C[C@H](COc2nc(Nc3cnn(C)c3)nc3[nH]cc(Cl)c23)[C@@H](OC)C1` (2.5 µM): 0; for `Cc1nn(C)c2c1C(c1ccc(C(F)(F)F)cc1)C(C#N)=C(N)O2` (configuration not stated) (10 µM): 0.
`O=C(NC1CCOCC1)c1ccc(-c2cc(-c3c[nH]nc3-c3ccccn3)ccn2)cc1` (10 µM): the “number of time points” value came to 0.
`CC/C(=N\NC(=O)c1ccnc(NCCCN2CCOCC2)c1)c1ccc(Cl)cc1O` (2.5 µM): the “number of time points” value turned out to be 0.
As for `COc1cc(N2CCOCC2)ccc1Nc1ncc(Cl)c(Nc2ccccc2NS(C)(=O)=O)n1` (2.5 µM), the “number of time points” value is 0.
Consider `Cn1cnc([N+](=O)[O-])c1C[N+](C)(C)C/C=C/C(=O)Nc1cc2c(Nc3ccc(Cl)c(Br)c3)ncnc2cn1` [Tarloxotinib (bromide)] (10 µM), for which the “number of time points” value was 0.

Source of the values: the supplement of paper PMC12823440, “Inhibitors supercharge kinase turnover through native proteolytic circuits” (Nature, 2025).
